These are yes or no findings as the source states them, for the method shown. In cells and extracts the contact can be indirect. Some entries that bind do so weakly or less than the wild type.
Legend:
[1] = molecular target: T1, peroxisome proliferator-activated receptor α (human (endogenous in U87 and U251)) (UniProt Q07869); assay: co-IP; nuclear protein fraction of glioblastoma cells; anti-PPARα or anti-RelA overnight at 4°C, protein A/G plus-agarose, Western blot
T1 sequence: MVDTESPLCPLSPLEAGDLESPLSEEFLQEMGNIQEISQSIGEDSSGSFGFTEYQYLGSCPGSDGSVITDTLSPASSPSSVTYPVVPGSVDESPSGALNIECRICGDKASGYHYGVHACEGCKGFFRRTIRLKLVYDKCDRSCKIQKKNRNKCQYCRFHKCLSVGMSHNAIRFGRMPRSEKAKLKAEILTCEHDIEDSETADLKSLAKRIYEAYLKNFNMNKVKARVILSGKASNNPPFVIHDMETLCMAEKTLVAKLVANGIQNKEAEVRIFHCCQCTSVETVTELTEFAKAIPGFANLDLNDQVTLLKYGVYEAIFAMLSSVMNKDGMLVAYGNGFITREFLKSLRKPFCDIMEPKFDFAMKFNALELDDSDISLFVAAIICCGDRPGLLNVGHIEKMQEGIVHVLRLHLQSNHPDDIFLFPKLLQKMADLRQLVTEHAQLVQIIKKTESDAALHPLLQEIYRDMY

Protein sequences, listed by entry. Tags and fused reporters are not part of them.
UniProt Q04206: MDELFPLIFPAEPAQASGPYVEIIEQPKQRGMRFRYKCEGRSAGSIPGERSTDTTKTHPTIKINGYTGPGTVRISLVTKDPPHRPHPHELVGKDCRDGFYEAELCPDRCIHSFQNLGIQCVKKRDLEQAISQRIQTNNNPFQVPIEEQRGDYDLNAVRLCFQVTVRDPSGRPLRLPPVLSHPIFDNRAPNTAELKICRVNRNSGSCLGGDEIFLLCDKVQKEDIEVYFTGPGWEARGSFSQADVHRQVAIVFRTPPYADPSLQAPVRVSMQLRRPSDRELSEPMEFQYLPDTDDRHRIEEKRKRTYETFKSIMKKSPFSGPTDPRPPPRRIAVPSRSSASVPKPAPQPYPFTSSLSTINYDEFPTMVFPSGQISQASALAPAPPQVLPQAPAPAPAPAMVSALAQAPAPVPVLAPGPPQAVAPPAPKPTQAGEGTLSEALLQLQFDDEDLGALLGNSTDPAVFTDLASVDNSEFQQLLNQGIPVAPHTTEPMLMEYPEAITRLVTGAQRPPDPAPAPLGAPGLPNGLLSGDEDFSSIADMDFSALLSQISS
UniProt Q16665: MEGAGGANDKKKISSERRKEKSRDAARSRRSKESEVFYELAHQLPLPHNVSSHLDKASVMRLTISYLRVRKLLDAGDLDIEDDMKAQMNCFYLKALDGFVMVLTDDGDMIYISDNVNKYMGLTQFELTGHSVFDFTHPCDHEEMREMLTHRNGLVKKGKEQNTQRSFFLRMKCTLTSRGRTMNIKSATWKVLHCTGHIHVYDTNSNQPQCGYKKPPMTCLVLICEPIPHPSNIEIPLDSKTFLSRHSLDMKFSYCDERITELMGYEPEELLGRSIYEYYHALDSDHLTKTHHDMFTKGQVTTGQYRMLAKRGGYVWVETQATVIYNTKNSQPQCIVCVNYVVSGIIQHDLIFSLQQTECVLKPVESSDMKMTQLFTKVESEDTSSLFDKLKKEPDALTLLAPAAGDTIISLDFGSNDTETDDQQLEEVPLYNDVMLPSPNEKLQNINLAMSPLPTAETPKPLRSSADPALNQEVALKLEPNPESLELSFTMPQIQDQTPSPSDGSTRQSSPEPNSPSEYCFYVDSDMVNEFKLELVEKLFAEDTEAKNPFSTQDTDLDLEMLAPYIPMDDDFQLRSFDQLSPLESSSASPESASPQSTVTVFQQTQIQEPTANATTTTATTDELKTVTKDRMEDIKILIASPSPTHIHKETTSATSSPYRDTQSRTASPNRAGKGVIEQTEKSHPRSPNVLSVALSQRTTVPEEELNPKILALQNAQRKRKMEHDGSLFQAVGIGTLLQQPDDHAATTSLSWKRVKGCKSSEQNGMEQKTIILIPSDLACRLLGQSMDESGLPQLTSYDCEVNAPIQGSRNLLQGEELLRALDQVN

[2] = molecular target: T1, peroxisome proliferator-activated receptor α (human (endogenous in U87 and U251)); assay: co-IP; cytoplasmic protein fraction of glioblastoma cells, untreated or treated with FF (100 μM); anti-PPARα or anti-RelA overnight at 4°C, protein A/G plus-agarose, Western blot
[3] = molecular target: NF-κB/RelA (human (endogenous in U87 and U251)) (UniProt Q04206); assay: co-IP; nuclear protein fraction of glioblastoma cells; anti-PPARα or anti-RelA overnight at 4°C, protein A/G plus-agarose, Western blot

binding [2]	binding [3]	Substance	binding [1]
binds		NF-κB/RelA (from UniProt Q04206 1-551)	no binding (condition: in the nuclear fraction)
	binds	hypoxia inducible factor1 alpha (from UniProt Q16665 1-826)	

— paper PMC4694890
